First the molecules themselves.
B1: 167 kDa protein PF3D7_0216700/PFB0765w, predicted to be related to autophagy (protein, UniProt Q8I659 1-1383)
chain: MVILGDEKESYTSYCDKNNDILISKQKIEDLKKSIENLLNDKNAHYELNHIKRSLNELDIYTKNKSDLFNNYNLNESLNDSYKDKTFEELKSQLIKQKNLNSCLSLKLKSIHIKLNNLFLKKNEFEKTINNKIKEIELQFLIIQNVTHENKGIPISKELKEQEKHLQNSHENVAIYDTHEIENNDKKKLYTNFHNEEKDHLKCLLEEYSKTLEIYKMGKIQLEFELKCCKEKLNEEIEKNNNYNNKMKSYEIHIDVVKNENCKNLEELNDLKLQLEKTKSENNQNYVKNKILNDEKNNLDKINNDLKIKIKNFKTLLNDAQNKEYILNNFTQKIFNIITYLKNNDEHNFLNDKIHNKLDINQDQIYVQTELYIDIISSSIRNLINFKKTLEERNVELEKVTHEMKELRKELILKKKNYEELRLKLNHLECVERDSVKINSEKEKGEKVIYELKEKLDNDEKIINDLKKKNSYQVYKMKDYEKRENNLINEINKLKLFIEENKMTVERGNEMNNKKLEEMKQKNKELINNLNDISDELKNCIEQVNSVSRNMANVEKEKENIINELQILRMKNDTMRKRISKFVEQEKVLKFKLYTLNNDIFSKNEKLNDMQKKLNDVNEKYKNIVECLNNYKTEHKEQIEKKIERINTLKQNYYYLKKEYDLKNKELEKNIEHGKKLEHELSHCYEENQKLNEEIKRRNSFIKNKDRKIDLLTNIENELLKKKEINNIKLMEKQNVIKNNEQLLKDIKDENEKMNEHVNKLQNELIKRELQNKCISKDIEFCKKEKEDKIKNLEDDLLEKKKCIENLKDELINIKKKMEDKMHMTNEMDLLSNKVEELNRINKTYEKNIVELNNELDVIKKKLNDEEFLKEEEKKKNIDMVYKIKEYEIQIKEKENEIDSLKKNEQNLHVLKNEELNEKEIILKNKYDKEINMIIEQYNKKIQEEKDMLNNKIKSMDQTHKNQIEEMQEENKKELKRLKNVCDMNLQSQILIKENEKHMQEKVEEYKNLLKQKDQELKNIIQEYDERIEIQNKEMEDIVNDCEEKLKQAKINNKKLTTATNMANNNNMLMDENLKEKDKKINDLMKDMEKKKEEINKLVEEKSKLEHSHVKIQNEMSLLVEQNEKLKEEMGLSRIAIKDMEEIKKDMEKYEEEKKKNEEERKKNEEERKKNEEERKKNEEEKKKNEEERKKNEEEKKKLEKDKHQFEEEKERMEIYEHQKEDRKRKDKKKKGHSSDKEEKYNKKEKTKEKSSNILFDEEYIIQLEELRDTGENCFIYLKSLSKELDVIINKLKSKDDALLNDAFNKINLAITSWNIFNEENKEGDNITTVENTATEGNITIDENTTEVEMNNEEVYKIFSVEKYDMLKKEVGEKVECIQKLIG

Amino acid sequences for entries named in this document (tags omitted). A change or cut given only in a name is not applied to a line headed by its entry.
UniProt Q8I1N6: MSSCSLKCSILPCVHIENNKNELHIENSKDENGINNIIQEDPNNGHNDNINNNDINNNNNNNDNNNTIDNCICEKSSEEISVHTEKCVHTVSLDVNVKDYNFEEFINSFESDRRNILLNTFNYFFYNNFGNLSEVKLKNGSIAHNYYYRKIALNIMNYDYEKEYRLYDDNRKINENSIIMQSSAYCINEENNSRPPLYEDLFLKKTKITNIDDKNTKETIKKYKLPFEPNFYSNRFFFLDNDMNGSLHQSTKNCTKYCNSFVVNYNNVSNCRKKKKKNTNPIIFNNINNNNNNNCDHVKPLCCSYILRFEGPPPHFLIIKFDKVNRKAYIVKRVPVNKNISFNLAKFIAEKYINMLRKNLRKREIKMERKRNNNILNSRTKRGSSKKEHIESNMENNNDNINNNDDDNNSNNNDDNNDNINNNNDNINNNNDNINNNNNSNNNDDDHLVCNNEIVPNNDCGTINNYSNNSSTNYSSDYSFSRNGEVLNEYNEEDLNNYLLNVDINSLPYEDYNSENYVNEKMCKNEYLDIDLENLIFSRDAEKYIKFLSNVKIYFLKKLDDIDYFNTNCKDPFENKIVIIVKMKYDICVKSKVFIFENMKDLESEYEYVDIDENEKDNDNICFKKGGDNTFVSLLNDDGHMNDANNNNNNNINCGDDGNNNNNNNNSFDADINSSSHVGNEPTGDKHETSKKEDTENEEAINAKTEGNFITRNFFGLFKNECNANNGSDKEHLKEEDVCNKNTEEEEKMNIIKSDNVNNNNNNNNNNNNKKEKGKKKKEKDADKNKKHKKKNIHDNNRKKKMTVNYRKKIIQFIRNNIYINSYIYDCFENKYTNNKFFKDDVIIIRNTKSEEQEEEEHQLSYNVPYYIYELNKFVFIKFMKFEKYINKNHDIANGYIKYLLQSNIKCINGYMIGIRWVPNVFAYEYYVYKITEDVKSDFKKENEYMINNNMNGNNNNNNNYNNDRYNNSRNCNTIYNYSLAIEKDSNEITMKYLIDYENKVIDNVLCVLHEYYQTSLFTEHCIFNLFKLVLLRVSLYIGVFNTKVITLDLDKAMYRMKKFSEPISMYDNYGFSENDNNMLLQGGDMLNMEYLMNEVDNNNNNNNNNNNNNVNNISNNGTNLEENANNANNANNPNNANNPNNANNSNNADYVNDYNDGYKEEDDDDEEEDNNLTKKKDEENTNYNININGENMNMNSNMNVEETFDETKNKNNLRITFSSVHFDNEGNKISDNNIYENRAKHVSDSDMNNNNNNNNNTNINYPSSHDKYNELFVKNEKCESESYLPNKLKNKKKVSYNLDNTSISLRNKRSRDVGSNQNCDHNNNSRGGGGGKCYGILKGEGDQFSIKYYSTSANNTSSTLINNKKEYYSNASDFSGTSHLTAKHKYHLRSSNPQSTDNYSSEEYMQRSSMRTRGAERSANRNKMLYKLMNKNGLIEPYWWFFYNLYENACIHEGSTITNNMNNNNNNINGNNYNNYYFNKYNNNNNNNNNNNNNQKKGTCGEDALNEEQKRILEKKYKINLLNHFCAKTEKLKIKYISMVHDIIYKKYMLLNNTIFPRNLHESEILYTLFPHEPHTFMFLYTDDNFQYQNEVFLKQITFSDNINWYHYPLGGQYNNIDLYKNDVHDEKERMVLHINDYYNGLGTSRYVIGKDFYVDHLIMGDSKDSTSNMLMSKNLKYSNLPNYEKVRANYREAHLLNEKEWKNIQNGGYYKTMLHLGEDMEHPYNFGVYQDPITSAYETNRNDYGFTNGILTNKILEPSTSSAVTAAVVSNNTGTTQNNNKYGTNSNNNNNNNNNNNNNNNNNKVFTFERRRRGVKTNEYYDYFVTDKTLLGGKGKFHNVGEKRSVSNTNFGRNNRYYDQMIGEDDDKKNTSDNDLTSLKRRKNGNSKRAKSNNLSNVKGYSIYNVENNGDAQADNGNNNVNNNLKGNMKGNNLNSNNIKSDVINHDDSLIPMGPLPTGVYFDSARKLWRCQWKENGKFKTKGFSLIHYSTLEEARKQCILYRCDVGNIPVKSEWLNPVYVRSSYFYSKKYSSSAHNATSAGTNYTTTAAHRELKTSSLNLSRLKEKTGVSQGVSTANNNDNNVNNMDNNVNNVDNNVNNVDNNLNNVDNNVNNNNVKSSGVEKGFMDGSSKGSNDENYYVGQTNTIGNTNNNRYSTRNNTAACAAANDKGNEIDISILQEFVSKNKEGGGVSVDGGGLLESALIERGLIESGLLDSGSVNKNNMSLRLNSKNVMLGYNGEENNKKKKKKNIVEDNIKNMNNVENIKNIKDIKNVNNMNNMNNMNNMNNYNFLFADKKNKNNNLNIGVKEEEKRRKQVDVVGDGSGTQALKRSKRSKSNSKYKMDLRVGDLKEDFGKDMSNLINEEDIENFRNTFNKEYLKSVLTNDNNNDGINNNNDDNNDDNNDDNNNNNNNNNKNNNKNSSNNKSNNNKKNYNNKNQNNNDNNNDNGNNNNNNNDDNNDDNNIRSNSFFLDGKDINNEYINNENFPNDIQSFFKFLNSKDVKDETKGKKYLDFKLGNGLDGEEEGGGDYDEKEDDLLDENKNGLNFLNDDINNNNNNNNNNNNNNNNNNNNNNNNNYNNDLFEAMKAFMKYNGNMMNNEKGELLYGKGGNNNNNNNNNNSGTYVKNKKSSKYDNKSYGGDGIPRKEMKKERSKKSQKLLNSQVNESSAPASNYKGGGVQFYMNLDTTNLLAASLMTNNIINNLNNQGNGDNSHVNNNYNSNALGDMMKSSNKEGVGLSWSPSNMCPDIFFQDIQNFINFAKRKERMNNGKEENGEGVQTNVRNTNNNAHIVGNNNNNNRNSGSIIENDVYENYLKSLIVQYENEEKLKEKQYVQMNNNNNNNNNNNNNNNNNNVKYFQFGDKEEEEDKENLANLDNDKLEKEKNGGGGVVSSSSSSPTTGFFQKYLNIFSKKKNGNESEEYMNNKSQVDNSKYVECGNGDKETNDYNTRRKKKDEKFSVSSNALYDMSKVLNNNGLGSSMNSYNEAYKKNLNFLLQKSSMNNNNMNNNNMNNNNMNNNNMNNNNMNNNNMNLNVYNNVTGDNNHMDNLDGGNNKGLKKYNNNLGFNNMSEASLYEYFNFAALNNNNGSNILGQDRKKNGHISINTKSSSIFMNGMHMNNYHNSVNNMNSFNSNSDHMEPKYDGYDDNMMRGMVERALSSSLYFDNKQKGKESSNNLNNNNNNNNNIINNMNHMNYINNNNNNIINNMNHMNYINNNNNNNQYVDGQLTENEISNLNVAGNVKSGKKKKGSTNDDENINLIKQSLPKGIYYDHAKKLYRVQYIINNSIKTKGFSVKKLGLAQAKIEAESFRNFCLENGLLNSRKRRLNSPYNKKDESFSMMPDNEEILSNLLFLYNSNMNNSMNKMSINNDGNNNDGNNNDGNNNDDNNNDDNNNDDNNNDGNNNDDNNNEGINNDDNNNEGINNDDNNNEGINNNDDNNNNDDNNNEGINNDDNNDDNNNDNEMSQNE
UniProt Q8IE95: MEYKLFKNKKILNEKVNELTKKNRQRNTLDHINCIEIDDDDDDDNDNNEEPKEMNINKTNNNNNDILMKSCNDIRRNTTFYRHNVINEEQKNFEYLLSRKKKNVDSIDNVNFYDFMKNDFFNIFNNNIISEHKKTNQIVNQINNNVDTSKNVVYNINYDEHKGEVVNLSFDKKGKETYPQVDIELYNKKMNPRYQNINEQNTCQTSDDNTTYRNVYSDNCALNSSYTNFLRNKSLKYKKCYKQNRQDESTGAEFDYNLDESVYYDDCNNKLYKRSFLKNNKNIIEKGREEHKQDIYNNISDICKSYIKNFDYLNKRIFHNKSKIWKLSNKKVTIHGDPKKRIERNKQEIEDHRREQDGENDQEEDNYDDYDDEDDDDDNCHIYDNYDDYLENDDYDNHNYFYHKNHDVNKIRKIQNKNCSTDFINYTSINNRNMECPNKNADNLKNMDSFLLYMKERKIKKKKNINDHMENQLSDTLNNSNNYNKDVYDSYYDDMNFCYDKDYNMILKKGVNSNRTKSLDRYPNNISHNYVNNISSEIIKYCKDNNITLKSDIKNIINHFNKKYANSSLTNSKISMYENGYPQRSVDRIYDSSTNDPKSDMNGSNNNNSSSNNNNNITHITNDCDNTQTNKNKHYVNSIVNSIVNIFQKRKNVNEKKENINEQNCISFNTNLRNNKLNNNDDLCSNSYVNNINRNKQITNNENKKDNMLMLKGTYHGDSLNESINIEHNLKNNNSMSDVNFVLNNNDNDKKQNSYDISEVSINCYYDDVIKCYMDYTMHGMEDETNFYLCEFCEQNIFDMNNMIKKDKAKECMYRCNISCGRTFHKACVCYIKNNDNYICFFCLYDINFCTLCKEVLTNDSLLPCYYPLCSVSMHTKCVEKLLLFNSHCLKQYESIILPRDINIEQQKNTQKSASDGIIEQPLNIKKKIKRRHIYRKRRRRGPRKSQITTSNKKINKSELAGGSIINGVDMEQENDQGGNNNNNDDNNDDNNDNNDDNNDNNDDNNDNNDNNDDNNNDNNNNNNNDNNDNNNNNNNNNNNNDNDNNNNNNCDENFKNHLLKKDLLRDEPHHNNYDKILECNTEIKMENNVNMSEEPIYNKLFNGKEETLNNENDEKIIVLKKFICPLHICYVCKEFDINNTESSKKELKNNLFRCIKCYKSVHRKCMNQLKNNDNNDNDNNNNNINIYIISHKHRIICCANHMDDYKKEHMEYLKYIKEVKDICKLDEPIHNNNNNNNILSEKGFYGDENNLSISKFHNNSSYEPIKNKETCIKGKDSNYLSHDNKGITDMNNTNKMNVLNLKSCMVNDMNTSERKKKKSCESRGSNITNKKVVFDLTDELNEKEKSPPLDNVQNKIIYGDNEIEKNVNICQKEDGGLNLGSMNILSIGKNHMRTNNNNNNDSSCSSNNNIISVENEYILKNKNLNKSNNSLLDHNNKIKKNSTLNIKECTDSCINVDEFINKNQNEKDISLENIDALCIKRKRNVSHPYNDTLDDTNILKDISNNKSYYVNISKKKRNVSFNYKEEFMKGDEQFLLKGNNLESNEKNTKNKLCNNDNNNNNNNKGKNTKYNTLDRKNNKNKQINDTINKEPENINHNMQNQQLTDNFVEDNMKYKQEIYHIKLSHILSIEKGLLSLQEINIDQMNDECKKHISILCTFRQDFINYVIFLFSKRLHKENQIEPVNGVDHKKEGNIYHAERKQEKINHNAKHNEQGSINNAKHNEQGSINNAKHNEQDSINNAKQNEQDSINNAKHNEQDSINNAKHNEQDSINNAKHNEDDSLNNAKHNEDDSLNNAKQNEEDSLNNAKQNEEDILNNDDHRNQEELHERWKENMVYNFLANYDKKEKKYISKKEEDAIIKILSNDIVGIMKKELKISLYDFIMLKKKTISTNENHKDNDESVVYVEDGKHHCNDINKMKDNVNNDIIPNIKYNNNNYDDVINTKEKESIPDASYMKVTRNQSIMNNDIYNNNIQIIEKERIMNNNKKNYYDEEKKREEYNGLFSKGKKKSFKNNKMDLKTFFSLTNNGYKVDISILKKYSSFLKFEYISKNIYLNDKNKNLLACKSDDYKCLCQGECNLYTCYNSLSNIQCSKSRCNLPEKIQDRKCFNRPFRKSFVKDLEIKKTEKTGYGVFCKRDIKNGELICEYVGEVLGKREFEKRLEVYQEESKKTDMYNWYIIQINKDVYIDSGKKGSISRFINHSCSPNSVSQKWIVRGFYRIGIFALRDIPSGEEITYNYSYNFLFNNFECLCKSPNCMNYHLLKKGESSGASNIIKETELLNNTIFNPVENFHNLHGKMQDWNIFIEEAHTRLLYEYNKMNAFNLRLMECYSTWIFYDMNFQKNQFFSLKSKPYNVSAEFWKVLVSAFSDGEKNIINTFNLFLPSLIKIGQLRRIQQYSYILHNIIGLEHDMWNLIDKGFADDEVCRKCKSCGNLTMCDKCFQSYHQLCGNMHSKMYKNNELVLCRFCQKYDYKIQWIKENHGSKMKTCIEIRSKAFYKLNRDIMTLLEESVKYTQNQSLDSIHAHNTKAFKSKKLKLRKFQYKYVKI

Results are given in words; binding and its absence hold for the method and conditions named. In cells and extracts the contact can be indirect. A yes stands for co-enrichment or nearness to the bait. Other partners may have been found.

The experiment deals with PfAP2-O-GFP-HA-DD24 (Plasmodium falciparum (NF54)) (UniProt Q8IHT5). Description: affinity purification with mass spectrometry; PfAP2-O-GFP-HA-DD24 immunoprecipitated via the HA tag (HA-Tag C29F4 rabbit mAb Sepharose beads) from a total protein extract of schizonts; eluate on 12% SDS gel, silver stained; three bands (70, 30, 15 kDa) absent from NF54 wild-type control excised, trypsin-digested, LTQ-Orbitrap Velos.
“Pf08_0048, putative Snf2-related CBP activator (chromatin remodeler) (from UniProt C0H4W3 1-2082)”: the binding result is “binds”.

Consider “ApiAP2 family member PF3D7_0420300/PFD0985W (from UniProt Q8I1N6 1-3473)”, for which the binding result is “binds”.

As to “histone-lysine N-methyltransferase SET1 (encoded by PF3D7_0629700) (from UniProt C6KTD2 1-6753) (enzyme)”, the binding entry is recorded as “binds”.

For the molecule “histone-lysine N-methyltransferase SET2 (encoded by PF3D7_1322100, PfSET2/PfSET-VS) (from UniProt Q8IE95) (enzyme)”, the binding result is “binds”.

Take B1: the binding result was “binds”.
